# Some of the results follow.
# Chains of the proteins cited; added tags and fusions are not shown.
# UniProt Q0JBA9, entry or part of it: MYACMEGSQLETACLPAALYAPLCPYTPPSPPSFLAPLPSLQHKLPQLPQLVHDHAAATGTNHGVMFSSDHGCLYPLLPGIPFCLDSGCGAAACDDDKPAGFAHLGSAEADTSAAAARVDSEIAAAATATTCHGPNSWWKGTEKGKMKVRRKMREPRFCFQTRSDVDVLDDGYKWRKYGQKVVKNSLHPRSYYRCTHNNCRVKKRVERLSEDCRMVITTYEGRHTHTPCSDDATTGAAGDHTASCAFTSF
# Target: OsWRKY34 (Oryza sativa, UniProt Q0JBA9 1-250)
# Test: protein-binding microarray (RPBM); PBS, 2% BSA, 51.3 ng/ul salmon testes DNA, 50 uM zinc acetate, 200 nM TF, 25 C, 1 h; high values mean tight binding
# Details: protein: recombinant; tags: N-terminal polyhistidine and DsRed monomer fusion (pET32a); label: CyDye5-dUTP incorporated in the synthesized complementary strand; 3' TTTTT single-stranded linker to array surface; dsDNA, one strand shown
# Method in brief: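 The binding signal for each feature is its fluorescence intensity in arbitrary units. An Axon 4000B scanner was used to read a custom Agilent array that had been made double-stranded with Cy5-dUTP primer extension, blocked with 2% BSA, incubated at 25 °C for 1 h with 200 nM protein in PBS, 2% BSA, salmon testes DNA and 50 µM zinc acetate, and washed. The protein was an N-terminal polyhistidine–DsRed transcription factor fusion from E. coli BL21-CodonPlus, purified on Ni–NTA.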
row,Sequence,binding signal
1,CTCCGACTACCTCAACGCCGCCGTGCCGCTCGCCGACCTCCGGAGTCACCTAGTGCAG,8360 fluorescence intensity (a.u.)
2,AGTTTTTGTTTGCACTGTTTGATCACTCGTTTTATTAAAACGGAGTCACCTAGTGCAG,9390 fluorescence intensity (a.u.)
3,GGCTGGTTTGGTTTGTGGCTAAAATTGGCCTTACCAATTTCGGAGTCACCTAGTGCAG,10500 fluorescence intensity (a.u.)
4,GCCCTCGTGCTACTGCATTGCCGCCGCTGGCGCGTCGCTCCGGAGTCACCTAGTGCAG,8310 fluorescence intensity (a.u.)
5,CCTCGGTTAACCAAACAGCTGATCTACACATTTTTTTGCACGGAGTCACCTAGTGCAG,9550 fluorescence intensity (a.u.)
6,CTTTAAGCATAACTTTTCGTTTTTTATATTTGCACAATTTCGGAGTCACCTAGTGCAG,9320 fluorescence intensity (a.u.)
7,CAACTATTTTTCGCAAGTATGAGGGTGTTCTAGCCATTTTCGGAGTCACCTAGTGCAG,9290 fluorescence intensity (a.u.)
8,GTGAAGGGTGGTAATTAAAAGATGCACGTTACAAATAAGCCGGAGTCACCTAGTGCAG,8520 fluorescence intensity (a.u.)
9,TCTCGATCGTCTCATCTCATCGTCTACCAACAACTAACCGCGGAGTCACCTAGTGCAG,8820 fluorescence intensity (a.u.)
10,TACAACTGGGGTGCTCTTTCATTTGACGTCAAGCTCTGCACGGAGTCACCTAGTGCAG,8340 fluorescence intensity (a.u.)
11,ACCGGCGGGCCCCACCATCTTGACTCCTCTCTGTGATCGACGGAGTCACCTAGTGCAG,8500 fluorescence intensity (a.u.)
12,CGAACGTGGATGCTCTTTTTTCTATTTCTTTAATAATATACGGAGTCACCTAGTGCAG,8170 fluorescence intensity (a.u.)
13,CTACTATTTCTTCATGTTATATAATTCTCCTTGTTTAAGTCGGAGTCACCTAGTGCAG,10500 fluorescence intensity (a.u.)
14,GGCTTTCCCTATCTGCTCGCCAACCCAAATAGCATGTTATCGGAGTCACCTAGTGCAG,8880 fluorescence intensity (a.u.)
15,AGCCTTCCGGTGAACTCCGGCGACGGGCGGGTGTGGGGATCGGAGTCACCTAGTGCAG,11000 fluorescence intensity (a.u.)
16,AAGTCATCAGCTGCAGCCTCGGCCGCATCACATCTGAGCCCGGAGTCACCTAGTGCAG,8270 fluorescence intensity (a.u.)
17,ACGTTGCCCTGCCTGCTTTCTTCTTGGATCGTCTCCATCTCGGAGTCACCTAGTGCAG,9520 fluorescence intensity (a.u.)
18,TTTATCTATTTTGGAACATTATTATATACATGTTAATTGTCGGAGTCACCTAGTGCAG,8430 fluorescence intensity (a.u.)
19,CTACACTTCCACTGGCGATCTCCCTGGCAATGGCCCTACTCGGAGTCACCTAGTGCAG,9860 fluorescence intensity (a.u.)
20,ACTGTAGTAGTAGTAGATTCGCTTGCCGTCACTCTCGTCCCGGAGTCACCTAGTGCAG,8570 fluorescence intensity (a.u.)
21,TTCCGGGTCATGTGTACATTATTATTCGAGTGATTTTACACGGAGTCACCTAGTGCAG,8160 fluorescence intensity (a.u.)

row,Sequence,binding signal
1,TTTTGTGGTATTTTAAACATGGTTTATATTTCTTATATTTCGGAGTCACCTAGTGCAG,9830 fluorescence intensity (a.u.)
2,TTTCACCTAGTCCTAGCCTAATTCGTCTATCTTTATCAATCGGAGTCACCTAGTGCAG,9710 fluorescence intensity (a.u.)
3,AAGGGCGAGGGTGGGTATGGGACAAGGCGGTGGACGCTGGCGGAGTCACCTAGTGCAG,12900 fluorescence intensity (a.u.)
4,GCACCCTCAACTAGTACAGTGCTACACTTGTTGGCCATTACGGAGTCACCTAGTGCAG,8280 fluorescence intensity (a.u.)
5,CTCGCAATTTTGTACGTGTATCATTCTTCCTCATTTTTCTCGGAGTCACCTAGTGCAG,9750 fluorescence intensity (a.u.)
6,TCCTTATTTTTTAATTCCGAATTTCAACTATTTCAACATTCGGAGTCACCTAGTGCAG,9730 fluorescence intensity (a.u.)
7,AGGGCGGTGGGGCGGCAAGGGACCAGATGGTGGGGCGGCACGGAGTCACCTAGTGCAG,11100 fluorescence intensity (a.u.)
8,GCACTCCACTTACTCTCCGCCCTGGCCCTCTTCTTGGTCTCGGAGTCACCTAGTGCAG,9370 fluorescence intensity (a.u.)
9,ACGATCCCCGAGCCTCTCTCGCGCGCGTCCCGTCACGTCTCGGAGTCACCTAGTGCAG,11900 fluorescence intensity (a.u.)
10,ACAGCAACTCACTGCAGCTTAGCTCTCTTTCTCTCTTAGTCGGAGTCACCTAGTGCAG,8340 fluorescence intensity (a.u.)
11,GAACGTGATTATGTATTTTTGGCTTGCTAATTTTTGGCTTCGGAGTCACCTAGTGCAG,8600 fluorescence intensity (a.u.)
12,TATACCTCCTGCTGTTGCTCTTGTTCACTTGTGCTCACAGCGGAGTCACCTAGTGCAG,8770 fluorescence intensity (a.u.)
13,CCTCCTCCTCCGCACCCACATCCAGGCCGTCCCGCCGCGGCGGAGTCACCTAGTGCAG,9340 fluorescence intensity (a.u.)
14,ACCTCTCACCGCTCGCCAGCGCCTCCTCGTCCTCGCTGCTCGGAGTCACCTAGTGCAG,9910 fluorescence intensity (a.u.)
15,CCCAAGGTCAGACTGCTGCCAGCGTTCGCCTGTTCCCAAACGGAGTCACCTAGTGCAG,9570 fluorescence intensity (a.u.)
16,CGCTACTCATCTACTCTACTCTACTCCTCCATCAACCAAACGGAGTCACCTAGTGCAG,8480 fluorescence intensity (a.u.)
17,GCTCTAGCGCCGCCGCGCTTCCTCACGCCGGCTACCGGACCGGAGTCACCTAGTGCAG,8370 fluorescence intensity (a.u.)
18,GGGGCGGGGCGGCCGTGCTTACACATGTTGGCAACGCACGCGGAGTCACCTAGTGCAG,11600 fluorescence intensity (a.u.)
19,TTACCGACGCAGCCTCGCCTACACTACACCCTCGATCCTTCGGAGTCACCTAGTGCAG,11100 fluorescence intensity (a.u.)
20,TGGCCCTCTACTTCTTTTGCAAGGTCAGCTGCATCGATTCCGGAGTCACCTAGTGCAG,8370 fluorescence intensity (a.u.)
21,TTTGTCACGCGAATACTGTATTGTAGGGTGGGGTTCACTGCGGAGTCACCTAGTGCAG,12100 fluorescence intensity (a.u.)

# 2 entries from above, set out differently.
row | Sequence | binding signal
13 | CCTCCTCCTCCGCACCCACATCCAGGCCGTCCCGCCGCGGCGGAGTCACCTAGTGCAG | 9340 fluorescence intensity (a.u.)
15 | CCCAAGGTCAGACTGCTGCCAGCGTTCGCCTGTTCCCAAACGGAGTCACCTAGTGCAG | 9570 fluorescence intensity (a.u.)

# From PMC7819943, “Rice protein-binding microarrays: a tool to detect cis-acting elements near promoter regions in rice”
